Measurements as given in paper PMC8233316.
Results are given in words; binding and its absence hold for the method and conditions named. In cells and extracts the contact can be indirect. These calls come from enrichment with a bait or labelling near it, and not all partners need be listed.

Sequences of proteins named here, by UniProt entry; tags and fusion partners are left off.
UniProt Q8C753: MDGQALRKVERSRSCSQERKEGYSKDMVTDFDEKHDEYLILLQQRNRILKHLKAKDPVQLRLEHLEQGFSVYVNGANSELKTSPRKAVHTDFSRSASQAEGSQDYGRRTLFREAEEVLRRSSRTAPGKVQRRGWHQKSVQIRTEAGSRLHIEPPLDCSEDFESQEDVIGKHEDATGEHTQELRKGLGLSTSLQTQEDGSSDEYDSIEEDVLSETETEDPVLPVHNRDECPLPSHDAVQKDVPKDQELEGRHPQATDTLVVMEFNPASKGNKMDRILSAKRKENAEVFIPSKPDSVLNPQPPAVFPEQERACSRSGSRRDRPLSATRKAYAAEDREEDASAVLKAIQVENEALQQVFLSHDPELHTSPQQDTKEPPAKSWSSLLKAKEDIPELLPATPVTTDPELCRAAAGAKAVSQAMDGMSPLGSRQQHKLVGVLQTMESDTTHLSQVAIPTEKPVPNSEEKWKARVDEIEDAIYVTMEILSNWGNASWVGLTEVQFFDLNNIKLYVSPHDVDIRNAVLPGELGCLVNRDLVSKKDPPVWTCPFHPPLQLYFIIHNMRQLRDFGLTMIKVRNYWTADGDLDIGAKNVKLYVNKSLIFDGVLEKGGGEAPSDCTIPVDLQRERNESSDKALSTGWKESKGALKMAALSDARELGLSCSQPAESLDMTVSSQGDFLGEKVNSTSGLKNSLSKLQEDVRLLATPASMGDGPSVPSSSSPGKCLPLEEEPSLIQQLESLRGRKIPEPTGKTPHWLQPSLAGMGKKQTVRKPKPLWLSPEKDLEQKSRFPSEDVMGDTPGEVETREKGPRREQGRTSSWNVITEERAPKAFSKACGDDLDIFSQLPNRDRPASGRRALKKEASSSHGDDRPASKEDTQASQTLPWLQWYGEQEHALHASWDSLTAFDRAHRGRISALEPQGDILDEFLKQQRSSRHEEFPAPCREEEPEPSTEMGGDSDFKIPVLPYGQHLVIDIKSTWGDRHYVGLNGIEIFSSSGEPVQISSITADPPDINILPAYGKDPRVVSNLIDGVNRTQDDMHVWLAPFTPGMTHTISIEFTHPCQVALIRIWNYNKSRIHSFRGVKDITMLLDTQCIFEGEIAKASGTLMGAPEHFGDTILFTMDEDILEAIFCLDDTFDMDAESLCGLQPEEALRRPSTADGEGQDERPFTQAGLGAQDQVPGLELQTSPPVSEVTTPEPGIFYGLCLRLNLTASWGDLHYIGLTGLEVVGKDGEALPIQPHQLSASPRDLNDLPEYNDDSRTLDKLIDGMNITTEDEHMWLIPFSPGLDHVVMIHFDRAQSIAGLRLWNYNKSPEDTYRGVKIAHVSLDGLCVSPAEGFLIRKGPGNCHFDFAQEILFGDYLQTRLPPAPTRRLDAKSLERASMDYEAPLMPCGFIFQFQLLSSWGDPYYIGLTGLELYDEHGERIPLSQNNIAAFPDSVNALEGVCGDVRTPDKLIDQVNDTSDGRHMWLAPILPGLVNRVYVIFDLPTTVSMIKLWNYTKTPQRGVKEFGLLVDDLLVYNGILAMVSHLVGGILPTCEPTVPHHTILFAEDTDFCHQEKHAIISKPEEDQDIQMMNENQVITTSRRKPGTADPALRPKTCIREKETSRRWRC

Target: T1, CFAP161 (mouse (endogenous in testis)) (UniProt Q6P8Y0)
T1 sequence: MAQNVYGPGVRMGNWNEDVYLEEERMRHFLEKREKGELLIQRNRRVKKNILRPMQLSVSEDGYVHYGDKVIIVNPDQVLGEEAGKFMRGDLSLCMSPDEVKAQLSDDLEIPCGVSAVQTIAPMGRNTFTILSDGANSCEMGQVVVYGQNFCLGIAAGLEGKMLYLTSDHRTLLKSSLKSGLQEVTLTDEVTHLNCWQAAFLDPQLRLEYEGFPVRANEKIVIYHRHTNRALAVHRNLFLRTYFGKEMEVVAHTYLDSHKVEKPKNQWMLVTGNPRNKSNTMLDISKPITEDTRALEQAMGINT
Assay: affinity purification with mass spectrometry; CFAP161 immunoprecipitated from wild type mouse testis with epididymis lysate with affinity-purified alpha-CFAP161 pII crosslinked to resin (Pierce crosslink IP kit); rabbit IgG as control; LC-MS/MS

binding: binds
Substance: KIAA0556 (Katanin-interacting protein KATNIP) (from UniProt Q8C753 1-1610)
